Assay results as given in PMC9262213.
Results are given in words; binding and its absence hold for the method and conditions named. Binding seen in cells or lysates may run through a third protein. Some binding calls cover weakened binding; strength is not graded here.

The chains behind the UniProt entries cited, without tags or fusion partners. Residues count along the entry.
UniProt P61073: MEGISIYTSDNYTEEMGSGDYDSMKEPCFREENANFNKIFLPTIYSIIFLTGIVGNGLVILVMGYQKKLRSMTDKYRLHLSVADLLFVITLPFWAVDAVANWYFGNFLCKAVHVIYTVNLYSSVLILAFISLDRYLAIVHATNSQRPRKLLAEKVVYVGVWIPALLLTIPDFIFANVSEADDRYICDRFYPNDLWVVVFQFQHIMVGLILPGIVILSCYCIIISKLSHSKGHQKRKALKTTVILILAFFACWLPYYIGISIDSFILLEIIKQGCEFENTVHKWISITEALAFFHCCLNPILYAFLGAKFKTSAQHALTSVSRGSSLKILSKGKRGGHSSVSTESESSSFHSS
UniProt Q15116, residues 25-288: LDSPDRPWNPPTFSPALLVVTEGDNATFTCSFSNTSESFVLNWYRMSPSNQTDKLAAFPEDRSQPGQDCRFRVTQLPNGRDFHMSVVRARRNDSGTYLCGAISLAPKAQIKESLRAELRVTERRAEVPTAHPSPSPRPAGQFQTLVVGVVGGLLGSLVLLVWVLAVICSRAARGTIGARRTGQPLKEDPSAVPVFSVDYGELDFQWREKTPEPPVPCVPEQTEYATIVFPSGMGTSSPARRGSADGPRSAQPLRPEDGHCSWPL

What was measured:
[1] = target: C-X-C chemokine receptor 4 (CXCR4) (human (endogenous in MIAPaCa-2 and PANC-1)) (UniProt P61073); experiment: co-IP; endogenous proteins; lysates (Pierce IP lysis buffer, 1 mg total protein, precleared) of serum-starved MIAPaCa-2 and PANC-1 cells pre-treated with solvent or AMD3100 (1 uM, 45 min); IP overnight at 4°C with rabbit polyclonal anti-PD-1 (rabbit IgG isotype as control) or, reciprocally, mouse monoclonal anti-CXCR4; Protein A/G-Agarose Plus; western blot for PD-1 and CXCR4
[2] = target: programmed cell death protein-1 (PD-1) (human (endogenous in MIAPaCa-2 and PANC-1)) (UniProt Q15116); experiment: as above

Row | Substance | binding [1] | binding [2]
1 | programmed cell death protein-1 (PD-1) (from UniProt Q15116 25-288) (receptor) | binds | –
2 | C-X-C chemokine receptor 4 (CXCR4) (from UniProt P61073 1-352) | – | binds
